# Assay results from PubChem BioAssay AID504834 (National Center for Advancing Translational Sciences (NCATS), 2011).
# About 22,000 (6.9%) of roughly 320,000 compounds were called active. This list was built around the results that the source calls inconclusive (neither active nor inactive); the mix of calls is not that of the screen. The call rests on the fitted dose curve; in most records, active means well fitted inhibition curve with a large enough effect; inconclusive means small, poorly fitted or top-dose-only effect, or another doubt; inactive means no such curve, though single readings can be large or run the other way. Potencies of inconclusive entries are doubtful fits and often do not repeat.
# Assay: Primary qHTS for delayed death inhibitors of the malarial parasite plastid, 96 hour incubation
# Settings: P. falciparum luciferase reporter growth; series mostly up to 28.7 µM; activity change, negative = inhibition: at the top concentration
# Outline: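 Two parasite generations (96 h, 37 C, 5% CO2) of compound exposure in infected erythrocytes (0.05% parasitemia, 2% hematocrit). Luciferase-reporter P. falciparum; decreased luminescence indicates inhibited growth, aimed at apicoplast-acting delayed death.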
# On the % scale 0 is the no-effect control and ±100 the full control effect; potency means the concentration at half of the fitted maximal effect.
Structure (SMILES),Potency,"activity change, negative = inhibition"
COC(=O)C1=C(c2cccc(OCc3ccccc3)c2)C[C@@H]2CC[C@H]1N2C(=O)NC1CCN(Cc2ccccc2)CC1,"inconclusive: 18.5 µM [inhibitor, single point]",
COc1ccc(OC)c(C2CC(=O)c3c([nH]c(C(=O)OC(C)C)c3C)C2)c1 (stereo not drawn),"inconclusive: 18.5 µM [inhibitor, single point]",
COc1cccc(C(C)NC(=O)C2CCCC2)c1 (stereo not drawn),"inconclusive: 18.5 µM [inhibitor, single point]",
O=C1CNC(=S)N1c1nc2ccccc2s1,"inconclusive: 11.7 µM [inhibitor, single point]",
CN1C(=O)C(=Cc2ccc(SC3CCCCC3)o2)C(=O)N(C)C1=O,"inconclusive: 18.5 µM [inhibitor, single point]",
COc1cc(NC(=O)CC(C)S(=O)(=O)c2ccc3c(c2)NC(=O)CO3)cc(OC)c1OC (stereo not drawn),"inconclusive: 18.5 µM [inhibitor, single point]",
COc1ccccc1-c1cc(C(=O)N2CCN(c3ccccc3OC)CC2)no1,,inactive: 9.85%
Cc1noc(C)c1S(=O)(=O)N1CCCC(C(=O)N2CCc3ccccc3C2)C1 (stereo not drawn),"inconclusive: 5.86 µM [inhibitor, single point]",
O=S(=O)(Cc1ccccc1Cl)NCCOc1ccccc1,"inconclusive: 18.5 µM [inhibitor, single point]",
COC(=O)c1sc(NC(=O)COc2c(C)cccc2C)nc1C,"inconclusive: 10.4 µM [inhibitor, single point]",
CCCCNS(=O)(=O)c1ccc(NC(=O)c2c(-c3ccccc3Cl)noc2C)cc1,active: 5.22 µM,
FC(F)(F)C1=CC(c2ccc(Cl)cc2)=NCCN1,active: 2.62 µM,
CCOc1ccc(NC(=O)CCNS(=O)(=O)c2cccc3nonc23)cc1,"inconclusive: 7.38 µM [inhibitor, partial curve, poor fit]",
C/C(=N\NC(=O)c1ccccc1OCc1ccc(F)cc1)c1ccccn1,active: 4.15 µM,
CCCC(=O)Nc1c2c(nn1-c1ccc(F)cc1)CS(=O)(=O)C2,"inconclusive: 10.4 µM [inhibitor, single point]",
Cc1ccc(/C=N/NC(=O)c2ccc(-c3ccccc3)cc2)o1,"inconclusive: 0.0828 µM [inhibitor, full curve, poor fit]",
CNc1ncc(C(=O)c2ccc(Cl)c(Cl)c2)s1,,inactive: 107%
CCOC(=O)c1sc(NC(=O)CC2OC(=O)c3ccccc32)nc1C (stereo not drawn),,inactive: 26.4%
O=C(/C=C/c1ccc(OC(F)F)cc1)Nc1cccc(S(=O)(=O)N2CCOCC2)c1,"inconclusive: 18.5 µM [inhibitor, single point]",
Cc1sc2ncn(CC(=O)Nc3cccc(S(N)(=O)=O)c3)c(=O)c2c1-c1ccccc1,,inactive: 0.563%
CC1=C(C(=O)OC2CCCC2)C(c2coc3ccccc3c2=O)C2=C(CCCC2=O)N1 (stereo not drawn),,inactive: 4.9%
Cc1ccc(NC2=C(Cl)C(=O)OC2OC(C)C)cc1 (stereo not drawn),active: 13.1 µM,

Structure (SMILES),Potency,"activity change, negative = inhibition"
Cc1ccc(NC(=S)Nc2c(C)n(C)n(-c3ccccc3)c2=O)cc1,"inconclusive: 8.28 µM [inhibitor, partial curve, poor fit]",
COc1cccc(C(=O)Nc2cc(C)nn2-c2ccccc2)c1OC,"inconclusive: 0.0828 µM [inhibitor, full curve, poor fit]",
CCN(CC)C1=NC(=[N+](CC)CC)c2ccccc21,active: 0.294 µM,
CCOc1ccc(C(=O)Nc2cccc3ncccc23)cc1Cl,"inconclusive: 18.5 µM [inhibitor, single point]",
CCN(Cc1cc2cccc(C)c2[nH]c1=O)C(=O)c1ccccc1OC,"inconclusive: 4.15 µM [inhibitor, single point]",
O=C(c1cccnc1)N1CCN(S(=O)(=O)c2cccc(Cl)c2)CC1,"inconclusive: 18.5 µM [inhibitor, single point]",
CCCn1c(SCC(=O)N2c3ccc(F)cc3CCC2C)nnc1-c1ccccn1 (stereo not drawn),"inconclusive: 2.33 µM [inhibitor, full curve, poor fit]",
COc1cccc(-n2cnc3sc4c(c3c2=O)CCC4)c1,"inconclusive: 16.5 µM [inhibitor, partial curve, poor fit]",
CC1=CN2C(=N)/C(=C\c3cn(CCCOc4ccccc4)c4ccccc34)C(=O)N=C2S1,"inconclusive: 2.94 µM [inhibitor, full curve, poor fit]",
COC(=O)c1ccccc1S(=O)(=O)N1CCC(C(=O)OCC(=O)c2ccccc2OC)CC1,"inconclusive: 18.5 µM [inhibitor, single point]",
CCCN1C(=S)c2ccccc2C1c1ccccc1 (stereo not drawn),"inconclusive: 10.4 µM [inhibitor, partial curve, poor fit]",
CCOC(=O)c1c(C)[nH]c(C)c1C(=O)COC(=O)c1cc(OC)c(OC)cc1OC,"inconclusive: 10.4 µM [inhibitor, single point]",
N#Cc1cc2sc3nnc(-c4ccncc4)n3c2cc1C#N,"inconclusive: 5.86 µM [inhibitor, single point]",
Cc1nn(C)c(C)c1NC(=O)Nc1cccc(C(F)(F)F)c1,"inconclusive: 10.4 µM [inhibitor, partial curve, poor fit]",
CCOc1ccc(NC(=O)c2cccc3ccccc23)cc1,"inconclusive: 10.4 µM [inhibitor, single point]",
O=S(=O)(c1ccc(Br)cc1)n1c(Cc2ccccc2)nc2ccccc21,"inconclusive: 3.7 µM [inhibitor, partial curve, poor fit]",
Cc1ccc(CNC(=O)CN2C(=O)c3ccccc3S2(=O)=O)cc1,"inconclusive: 0.131 µM [inhibitor, full curve, poor fit]",
Cc1ccc(C2=NOC3(CC(=O)N(c4ccc(C)cc4)C3=O)C2)cc1 (stereo not drawn),,inactive: 72.7%
Cc1oc(-c2ccc(F)cc2)nc1CN1CCCC(C(=O)N2CCOCC2)C1 (stereo not drawn),,inactive: 35.2%
CC1CCCCC1NC(=O)c1ccc(S(=O)(=O)N2CCN(C)CC2)cc1 (stereo not drawn),"inconclusive: 18.5 µM [inhibitor, single point]",
Cc1c(NC(=O)CCCCCN2C(=O)C3C4C=CC(C4)C3C2=O)c(=O)n(-c2ccccc2)n1C (stereo not drawn),active: 9.28 µM,

# Quoted from the listing.
# Entry for COc1cccc(-n2cnc3sc4c(c3c2=O)CCC4)c1 under Potency: inconclusive: 16.5 µM [inhibitor, partial curve, poor fit]
# Entry for CC1=CN2C(=N)/C(=C\c3cn(CCCOc4ccccc4)c4ccccc34)C(=O)N=C2S1 under Potency: inconclusive: 2.94 µM [inhibitor, full curve, poor fit]
